66 compounds from the supplement of paper PMC8616043 can be followed below.

The structures appear in SMILES notation. Structures can show the parent of a compound that is named as a salt. This is one part of the list. Repeats in this data set agree poorly, so a single value says little.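 PR50, a 50-repeat proline–arginine dipeptide protein from C9ORF72 (ALS/FTD), was expressed by transfection in U-2 OS human cells stably carrying a GFP sensor with import and classical export signals. Per-well nuclear-minus-cytoplasm GFP, normalized between in-plate DMSO (low) and PR-only (high), was scored versus other test wells; compounds well below zero were hits reversing PR.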

The experiment has as its system U-2 OS NCT-C biosensor cells expressing PR50. Kind of experiment: Z-score of normalised NCT-C biosensor translocation index in PR50-expressing cells; higher = more nuclear biosensor (more disrupted nuclear export). To be noted: 3 µM; 24 h.
Take `CC(c1cc2ccccc2s1)N(O)C(N)=O` (stereo unspecified) [Zileuton]: the Z-score was inactive: 3.62.

On to `C[C@@H]1C(=O)O[C@H]2C[C@@]34[C@H]5C[C@@H](C(C)(C)C)[C@]36[C@@H](OC(=O)[C@@H]6O)O[C@@]4(C(=O)O5)[C@]21O` [Ginkgolide A], for which the Z-score is inactive: -1.11.

On to `CC(=O)Oc1cc(C(C)C)c(OCCN(C)C)cc1C` [Moxisylyte hydrochloride], for which the Z-score is inactive: -0.304. The figure for `CC(C)OC(=O)CCC/C=C\C[C@@H]1[C@@H](CC[C@@H](O)CCc2ccccc2)[C@H](O)C[C@@H]1O` [Latanoprost] is inactive: 0.17.

As for `COc1cc(C)c(/C=C/C(C)=C/C=C/C(C)=C/C(=O)O)c(C)c1C` [Acitretin], the Z-score was inactive: -0.193. For the compound `C[n+]1cccc(C(=O)[O-])c1` [Trigonelline·HCl], the Z-score is inactive: -0.302. As for `O=c1[nH]c(=O)n([C@H]2C[C@H](O)[C@@H](CO)O2)cc1F` [Floxuridine], the Z-score is inactive: 0.74. Take `CNNCc1ccc(C(=O)NC(C)C)cc1` [Procarbazine·HCl]: the Z-score is inactive: -0.301. With `NS(=O)(=O)c1cc2c(cc1Cl)NCNS2(=O)=O` [Hydrochloro thiazide], the Z-score is inactive: 0.211. Turning to `NS(=O)(=O)c1cc2c(cc1Cl)NCNS2(=O)=O` [Hydrochlorothiazide], the Z-score is inactive: 1.09. To `COc1cc(/C=C/C(=O)O)ccc1O` [Ferulic acid] belongs inactive: 0.0854; to `CN(C)CCC=C1c2ccccc2C=Cc2ccccc21` [Cyclobenzaprine·HCl], inactive: 0.229; to `O=C1c2cccc(O)c2C(=O)c2c(O)cc(CO)cc21` [Aloe-emodine], inactive: 1.22.

With `CN(C)CCc1c[nH]c2ccc(C[C@H]3COC(=O)N3)cc12` [Zolmitriptan], the Z-score is inactive: -0.364. As for `O=C(O)C1=CCNCC1` [Isoguvacine hydrochloride], the Z-score was inactive: 0.0121. In the case of `CNC(=C[N+](=O)[O-])NCCSCc1csc(CN(C)C)n1` [Nizatidine], the Z-score is inactive: -0.499. Regarding `CCC1=C[C@@H]2CN(C1)Cc1c([nH]c3ccccc13)[C@@](C(=O)OC)(c1cc3c(cc1OC)N(C)[C@H]1[C@@](O)(C(=O)OC)[C@H](OC(C)=O)[C@]4(CC)C=CCN5CC[C@]31[C@@H]54)C2` [Vinorelbine], the Z-score is inactive: 1.67. In the case of `CS(=O)(=O)Nc1ccc([N+](=O)[O-])cc1Oc1ccccc1` [Nimesulide], the Z-score was inactive: -0.546. As for `CCn1cc(C(=O)O)c(=O)c2cc(F)c(N3CCNC(C)C3)c(F)c21` (stereo unspecified) [Lomefloxacin hydrochloride], the Z-score was inactive: -0.381. Regarding `NC(=O)c1cc[n+](CC2=C(C(=O)O)N3C(=O)[C@@H](NC(=O)C(c4ccccc4)S(=O)(=O)[O-])[C@H]3SC2)cc1` (stereo partly specified) [Cefsulodin sodium salt hydrate], the Z-score was inactive: -0.495. To `C[C@]12C=CC(=O)C=C1CC[C@@H]1C2=CC[C@]2(C)[C@@H](C(=O)CN3CCN(c4cc(N5CCCC5)nc(N5CCCC5)n4)CC3)CC[C@@H]12` belongs inactive: -0.576; to `C[C@]12C=CC(=O)C=C1CC[C@@H]1[C@@H]2C(=O)C[C@@]2(C)[C@H]1CC[C@]2(O)C(=O)CO` [Prednisone], inactive: -0.0993; to `Cn1c(=O)c2[nH]c(-c3ccc(S(=O)(=O)O)cc3)nc2n(C)c1=O` [8-(p-Sulfophenyl) theophylline], inactive: -0.324. Consider `C[C@@H]1O[C@@H]1P(=O)(O)O` [Fosfomycin Calcium], for which the Z-score is inactive: 0.839. Consider `C[C@@H]1O[C@@H]1P(=O)(O)O` [Phosphomycin disodium salt], for which the Z-score is inactive: 0.303.

As for `COc1cc2c(cc1O)[C@@H](Cc1ccc(O)c(Oc3ccc(C[C@@H]4c5cc(OC)c(OC)cc5CCN4C)cc3)c1)N(C)CC2` [Daurisoline], the Z-score is inactive: -1.19. As for `CC[C@]12CCCN3CCc4c(n(c5ccccc45)C(=O)C1)[C@@H]32` [(-)-Eburnamonine], the Z-score is inactive: -0.766. For the compound `CC#CCOC(=O)c1c(C)nc2sc3c(c2c1N)CCC(O)C3` (stereo unspecified), the Z-score is inactive: -0.961.

On to `NC(=O)c1ccncc1` [Isonicotinamide], for which the Z-score is inactive: 1.02.

On to `Cn1cc(C2=C(c3ccc(Cl)cc3Cl)C(=O)NC2=O)c2ccccc21`, for which the Z-score is inactive: 0.405.

Turning to `CN(N=O)C(=O)N[C@@H](C=O)[C@@H](O)[C@H](O)[C@H](O)CO` [Streptozotocin], the Z-score is inactive: -0.609. For `Cc1ccc(C(=O)Nc2ccc(S(=O)(=O)O)c3cc(S(=O)(=O)O)cc(S(=O)(=O)O)c23)cc1NC(=O)c1cccc(NC(=O)Nc2cccc(C(=O)Nc3cc(C(=O)Nc4ccc(S(=O)(=O)O)c5cc(S(=O)(=O)O)cc(S(=O)(=O)O)c45)ccc3C)c2)c1` [Suramin hexasodium], the Z-score is inactive: -0.658.

As to `CCc1cc(C(N)=S)ccn1` [Ethionamide], the Z-score is inactive: 1.05.

With `CC(=O)Nc1c(I)c(NC(C)=O)c(I)c(C(=O)O)c1I` [Diatrizoate Meglumine], the Z-score is inactive: -0.145. For the compound `NC[C@@H]1O[C@H](O[C@@H]2[C@@H](CO)OC(O[C@@H]3[C@@H](O)[C@H](N)C[C@H](N)[C@H]3OC3O[C@H](CN)[C@@H](O)[C@H](O)[C@H]3N)[C@@H]2O)[C@H](N)[C@@H](O)[C@@H]1O` (stereo partly specified) [Neomycin trisulfate], the Z-score was inactive: 0.115. The figure for `Cc1cn([C@@H]2C[C@@H](O)[C@H](CO)O2)c(=O)[nH]c1=O` [Telbivudine] is inactive: -0.798; for `CN1CCN(C(c2ccccc2)c2ccc(Cl)cc2)CC1` (stereo unspecified) [Chlorcyclizine] it is inactive: 0.665.

Regarding `Cc1c(Cl)cccc1Nc1ncccc1C(=O)O` [Clonixin], the Z-score is inactive: 5.29. As for `C=C1/C(=C\C=C2/CCC[C@]3(C)[C@@H]([C@H](C)CCCC(C)(C)O)CC[C@@H]23)C[C@@H](O)C[C@@H]1O` [Calcitriol], the Z-score is inactive: -1.87. `CC(C)(O/N=C(\C(=O)N[C@@H]1C(=O)N2C(C(=O)[O-])=C(C[n+]3ccccc3)CS[C@H]12)c1csc(N)n1)C(=O)O` [Ceftazidime]: the Z-score was inactive: 0.929. Take `CCc1c2c(nc3ccc(OC(=O)N4CCC(N5CCCCC5)CC4)cc13)-c1cc3c(c(=O)n1C2)COC(=O)[C@]3(O)CC` [Irinotecan·HCl]: the Z-score is inactive: 1.84. The figure for `C=CCN1CCc2c(cc(O)c(O)c2Cl)C(c2ccccc2)C1` (racemic) [(±)-Chloro-APB hydrobromide] is inactive: 0.259; for `CNCCC=C1c2ccccc2CCc2ccccc21` [Nortriptyline·HCl] it is inactive: -0.394. For `CNCCC=C1c2ccccc2CCc2ccccc21` [Nortriptyline hydrochloride], the Z-score is inactive: -0.0819. Regarding `C[C@H]1[C@H](NC(=O)/C(=N\OC(C)(C)C(=O)O)c2csc(N)n2)C(=O)N1S(=O)(=O)O` [Aztreonam], the Z-score was inactive: 0.512. The figure for `CC(=O)NNC(=O)N1Cc2ccccc2Oc2ccc(Cl)cc21` is inactive: -1.1; for `CNC[C@H](O)c1cccc(O)c1` [(R)-(-)-  Phenylephrine hydrochloride] it is inactive: 0.0825.

Turning to `CNC[C@H](O)c1cccc(O)c1` [Phenylephrine], the Z-score is inactive: -0.0358. In the case of `CN1C(=O)CC(C)(c2ccccc2)C1=O` (stereo unspecified) [Methsuximide], the Z-score was inactive: -0.762.

In the case of `[Cl-].[Li+]` [Lithium chloride], the Z-score was inactive: 0.348.

With `CCCCCCN(CCCCCC)C(=O)Cc1c(-c2ccc(F)cc2)[nH]c2ccccc12` [N,N-Dihexyl-2-(4- fluorophenyl) indole- 3-acetamide], the Z-score is inactive: -0.0625. As to `CCN(CC)CCNC(=O)c1ccc(NC(C)=O)cc1` [N-Acetyl procainamide HCl], the Z-score was inactive: 0.802.

Consider `CCOC(=O)[C@H](CCc1ccccc1)N[C@@H](C)C(=O)N1[C@H](C(=O)O)C[C@H]2CCCC[C@@H]21` [Trandolapril], for which the Z-score was inactive: -0.566. Regarding `COc1cc2c(cc1OC)-c1cc3ccc(OC)c(OC)c3c[n+]1CC2` [Palmatine chloride], the Z-score is inactive: -0.426. The figure for `COC(=O)[C@H]1[C@H]2C[C@@H]3c4[nH]c5cc(OC)ccc5c4CCN3C[C@H]2C[C@@H](OC(=O)c2cc(OC)c(OC)c(OC)c2)[C@@H]1OC` [Reserpine] is inactive: 0.0793.

Take `CC(C)C[C@H](NC(=O)[C@@H](O)[C@H](N)Cc1ccccc1)C(=O)O` [Bestatin hydrochloride]: the Z-score was inactive: 3.55.

For the compound `C=CCc1ccc(O)c(-c2ccc(O)c(CC=C)c2)c1` [Honokiol], the Z-score was inactive: -0.57. Consider `O=C(O)CN(CCOCCOCCN(CC(=O)O)CC(=O)O)CC(=O)O`, for which the Z-score is inactive: -0.0924.

Turning to `O=c1c(-c2ccc(O)cc2)coc2cc(O)cc(O)c12` [Genistein], the Z-score was inactive: 0.474. For the compound `CN(CCOc1ccc(NS(C)(=O)=O)cc1)CCc1ccc(NS(C)(=O)=O)cc1` [Dofetilide], the Z-score was inactive: -1.34. For `CNCC(O)c1ccc(O)c(O)c1` (racemic) [(+-)-Epinephrine hydrochloride], the Z-score was inactive: -0.404. With `CC(=O)N1CCN(c2ccc(OCC3COC(Cn4ccnc4)(c4ccc(Cl)cc4Cl)O3)cc2)CC1` (stereo unspecified) [Ketoconazole], the Z-score is inactive: -0.489. To `CC(C)NCC(O)c1ccc(NS(C)(=O)=O)cc1` (stereo unspecified) [Sotalol·HCl] belongs inactive: 1.24. With `C#C[C@]1(O)CC[C@H]2[C@@H]3CCc4cc(OC)ccc4[C@H]3CC[C@@]21C` [Mestranol], the Z-score is inactive: -0.215. To `COc1ccc2cccc(CCNC(C)=O)c2c1` [Agomelatine] belongs inactive: 0.448. Regarding `CCN(CC)CCCC(C)Nc1c2ccc(Cl)cc2nc2ccc(OC)cc12` (stereo unspecified) [Quinacrine dihydrochloride], the Z-score was inactive: -0.634.
